Where a name gives a salt, the structure may show the parent alone. For at least one compound, name, drawing or mass did not settle the structure. Square brackets hold non-standard residues; d marks the D form. Peptide text beside a SMILES is read from it. * marks the point of attachment. X4 = C[C@@H](O)[C@@H](C(=O)*)N(C)CCCCCC(=O)NCCCC[C@H](N)C(=O)O; Dolaproine = CO[C@@H]([C@@H]1CCCN1)[C@@H](C)C(=O)O; Dil = CC[C@H](C)[C@H](NC)[C@@H](CC(=O)O)OC; Oxazinan2yl(1,2) = C1CCN(*)OC1
Tested on: tubulin
Test: Fluorescence-based microtubule (tubulin) polymerization assay
Format: biochemical
Details: concentration of toxophore 10 μM
Experimental: Tubulin polymerization was investigated using the “Fluorescence-based Microtubule Polymerisation Assay Kit” from Cytoskeleton (Denver, Colo., USA; order number: BK011). With this assay, GTP is added to unpolymerized tubulin, allowing polymerization to take place spontaneously. The assay is based on the binding of the fluorophore 4′,6-di-amidino-2-phenylindole (DAPI) to tubulin. Free and bound DAPI can be differentiated on the basis of different emission spectra.
[…] In addition to the buffer control, paclitaxel, with a polymerization-increasing effect, and vinblastin, with a polymerization inhibiting effect, were run additionally as assay controls. Measurement was carried out using 96-well plates with a half base area. The kinetics of the tubulin polymerization were monitored in a Fluorimeter at 37° C. for 1 hour. The excitation wavelength was 355 nm, and emission was monitored at 460 nm. For the region of linear increase within the first 10 minutes, a calculation was made of the change in fluorescence per minute (ΔF/min), which represents the polymerization rate of the microtubuli. The potency of the test substances was quantified on the basis of their respective reduction of the polymerization rate.
The reduction in the tubulin polymerization rate occurs in dependence on the concentration of the test substance added.

## CC[C@H](C)[C@@H]([C@@H](CC(=O)N1CCC[C@H]1[C@H](OC)[C@@H](C)C(=O)N[C@@H](Cc1c[nH]c2ccccc12)C(=O)N1CCCCO1)OC)N(C)C(=O)[C@@H](NC(=O)[C@H]([C@@H](C)O)N(C)CCCCCC(=O)NCCCC[C@H](N)C(=O)O)C(C)C [Example 116, N-(6-{[(5S)-5-Amino-5-carboxypentyl]amino}-6-oxohexyl)-N-methyl-L-threonyl-N-[(3R,4S,5S)-1-{(2S)-2-[(1R,2R)-3-{[(2S)-3-(1H-indol-3-yl)-1-(1,2-oxazinan-2-yl)-1-oxopropan-2-yl]amino}-1-methoxy-2-methyl-3-oxopropyl]pyrrolidin-1-yl}-3-methoxy-5-methyl-1-oxoheptan-4-yl]-N-methyl-L-valinamide trifluoroacetate] (X4-V[Dil][Dolaproine]W-{Oxazinan2yl(1,2)})
  Tubulin polymerization in the presence of toxophore in [%]. Tubulin polymerization rate at 1 μM MMAF set at 100%: 31%
